For at least one compound, name, drawing or mass did not settle the structure.
How the values were obtained:
[1] = test system: MCP-1 promoter; experiment: MCP-1 promoter luciferase reporter in 3T3-L1 pre-adipocytes; format: cell-based
[2] = test system: MCP-1; details: rosiglitazone, ob/ob mice, Xu et al. (17); cited from earlier work

SMILES: CN(CCOc1ccc(CC2SC(=O)NC2=O)cc1)c1ccccn1 (stereo not drawn) [rosiglitazone]
- MCP-1 promoter activity ([1]; ABA 12.5 μM, rosiglitazone 1 μM, co-transfection with PPAR γ expression vector): significantly enhanced the ability of both ABA and rosiglitazone to inhibit MCP-1 promoter activity
- effects on MCP-1 transactivation under cotreatment with antagonist ([1]; plus GW9662 30 μM): significantly inhibited by cotreatment with GW9662
- decrease of MCP-1 in SVCs [2]: approximately 2 fold

Reference: patent publication US8367727B2, “Method of using abscisic acid to treat diseases and disorders” (priority 2006, dated 2013)
